Measured values taken from PubChem BioAssay AID248 (DTP/NCI, 2004).
The list shows only some results of the screen, not a fair sample: it gathers some chemical classes. Other doses and runs of a compound may be missing. T/C: endpoint of the treated group in % of that of the vehicle group. Some doses have a count of surviving animals in place of a T/C: the source holds a T/C of zero for them, seemingly a mark for toxic or unscored doses. Some survivor counts are full or nearly so, which does not show that the dose was tolerated: the source hardly ever lists a survival T/C far under the control, and the zero likely stands for such cases as well. Counts of survivors are from the toxicity check (mostly the fifth day) where no day follows; animals may have died later. Schedule codes are those of the source, taken here to give the interval after Q, in days (D) or hours (H), and the number of doses after X. Some schedules carry Z or #; the key to these is not given. For survival time, the PubChem record calls one and a half times the control and up active, and a quarter to a half above the control has no call in these data; cut-offs in other NCI protocols can differ. Counts like (3×) give the number of equal values in this list. Some T/C values are followed by the survivors on the day toxicity was checked, most often the fifth; without a count or a note in brackets, all were alive then. Some doses were run more than once; their values stand side by side, smallest first.

Test system: L1210 leukemia ip in BDF1 mice, survival T/C
Assay: NCI In Vivo Anticancer Drug Screen. Data for tumor model L1210 Leukemia (intraperitoneal) in B6D2F1 (BDF1) mice
Details: T/C endpoint: mean survival time, higher T/C = longer survival

In the case of `OC(CNCCCl)C(O)C(O)C(O)CNCCCl` (configuration not stated), the T/C (dose: 23.0 mg/kg/injection, schedule: Q07DX Z (ip), vehicle: saline) is reported as 152 % of control, the T/C (dose: 24.0 mg/kg/injection, schedule: Q03HX024 (ip), vehicle: saline) is reported as 119 % of control and the T/C (dose: 25.0 mg/kg/injection, schedule: Q01DX001 (ip), vehicle: saline) is reported as 112 % of control. For the same compound, the T/C (dose: 25.0 mg/kg/injection, schedule: Q01DX002 (ip), vehicle: saline) was 130 and 132 % of control, the survivor count (dose: 25.0 mg/kg/injection, schedule: Q01DX Z (ip), vehicle: saline) was 6 of 6 and the T/C (dose: 25.5 mg/kg/injection, schedule: Q01DX Z (ip), vehicle: carboxymethylcellulose (CMC)) was 137 % of control. The T/C (dose: 30.0 mg/kg/injection, schedule: Q01DX009 (ip), vehicle: saline) was 126 % of control, the T/C (dose: 30.0 mg/kg/injection, schedule: Q03DX Z (ip), vehicle: saline) was 168 % of control and the T/C (dose: 30.0 mg/kg/injection, schedule: Q#A X Z (ip), vehicle: saline) was 98 % of control. For the same compound, the T/C (dose: 32.0 mg/kg/injection, schedule: Q01DX Z (ip), vehicle: saline) was 141 and 155 % of control, the T/C (dose: 34.0 mg/kg/injection, schedule: Q01DX Z (ip), vehicle: carboxymethylcellulose (CMC)) was 122 % of control and the T/C (dose: 35.0 mg/kg/injection, schedule: Q01DX001 (ip), vehicle: saline) was 121, 127, 147, 155 % of control. For the same compound, the T/C (dose: 35.0 mg/kg/injection, schedule: Q01DX002 (ip), vehicle: saline) was 132 % of control (2×), the T/C (dose: 35.0 mg/kg/injection, schedule: Q07DX Z (ip), vehicle: saline) was 133 and 148 % of control and the T/C (dose: 36.0 mg/kg/injection, schedule: Q03HX024 (ip), vehicle: saline) was 130 % of control. The T/C (dose: 40.0 mg/kg/injection, schedule: Q01DX001 (ip), vehicle: saline) was 107, 140, 144 % of control, the T/C (dose: 40.0 mg/kg/injection, schedule: Q01DX001 (oral), vehicle: saline) was 100 % of control and the T/C (dose: 40.0 mg/kg/injection, schedule: Q01DX006 (iv), vehicle: saline) was 103 and 112 % of control. The T/C (dose: 40.0 mg/kg/injection, schedule: Q01DX009 (ip), vehicle: saline) was 123 % of control, the T/C (dose: 40.0 mg/kg/injection, schedule: Q01DX009 (oral), vehicle: saline) was 101 % of control and the T/C (dose: 40.0 mg/kg/injection, schedule: Q01DX009 (sc), vehicle: saline) was 133 % of control. For the same compound, the T/C (dose: 40.0 mg/kg/injection, schedule: Q01DX Z (im), vehicle: saline) was 108 and 116 % of control, the T/C (dose: 40.0 mg/kg/injection, schedule: Q01DX Z (ip), vehicle: saline) was 102 and 105 % of control and the T/C (dose: 40.0 mg/kg/injection, schedule: Q01DX Z (oral), vehicle: saline) was 101 and 116 % of control. For the same compound, the T/C (dose: 40.0 mg/kg/injection, schedule: Q01DX Z (sc), vehicle: saline) was 102 and 113 % of control, the T/C (dose: 40.0 mg/kg/injection, schedule: Q## X002 (ip), vehicle: saline) was 148 % of control and the T/C (dose: 40.0 mg/kg/injection, schedule: Q## X003 (ip), vehicle: saline) was 158 % of control. For the same compound, the T/C (dose: 40.0 mg/kg/injection, schedule: Q## X008 (ip), vehicle: saline) was 135 % of control, the T/C (dose: 40.0 mg/kg/injection, schedule: Q## X016 (ip), vehicle: saline) was 119 % of control and the T/C (dose: 40.0 mg/kg/injection, schedule: Q## X024 (ip), vehicle: saline) was 148 % of control. The T/C (dose: 42.5 mg/kg/injection, schedule: Q01DX Z (ip), vehicle: carboxymethylcellulose (CMC)) was 113 % of control, the survivor count (dose: 45.0 mg/kg/injection, schedule: Q#A X Z (ip), vehicle: saline) was 6 of 6 and the T/C (dose: 48.0 mg/kg/injection, schedule: Q01DX Z (ip), vehicle: saline) was 103 % of control. The T/C (dose: 50.0 mg/kg/injection, schedule: Q01DX002 (ip), vehicle: saline) was 131 and 135 % of control [5 of 6 alive], the survivor count (dose: 50.0 mg/kg/injection, schedule: Q01DX Z (ip), vehicle: saline) was 6 of 6 and the T/C (dose: 54.0 mg/kg/injection, schedule: Q01DX001 (ip), vehicle: saline) was 131 % of control. For the same compound, the T/C (dose: 54.0 mg/kg/injection, schedule: Q03HX008 (ip), vehicle: saline) was 122 % of control, the T/C (dose: 54.0 mg/kg/injection, schedule: Q03HX024 (ip), vehicle: saline) was 130 % of control and the T/C (dose: 54.0 mg/kg/injection, schedule: Q04DX003 (ip), vehicle: saline) was 154 % of control. The T/C (dose: 55.0 mg/kg/injection, schedule: Q01DX001 (ip), vehicle: saline) was 135 % of control, the survivor count (dose: 60.0 mg/kg/injection, schedule: Q01DX006 (iv), vehicle: saline) was 6 of 6 and the survivor count (dose: 60.0 mg/kg/injection, schedule: Q01DX Z (im), vehicle: saline) was 6 of 6. For the same compound, the T/C (dose: 60.0 mg/kg/injection, schedule: Q01DX Z (ip), vehicle: saline) was 88 % of control, the T/C (dose: 60.0 mg/kg/injection, schedule: Q01DX Z (sc), vehicle: saline) was 93 % of control and the T/C (dose: 60.0 mg/kg/injection, schedule: Q03DX Z (ip), vehicle: saline) was 131 % of control. The T/C (dose: 64.0 mg/kg/injection, schedule: Q01DX Z (ip), vehicle: saline) was 88 % of control, the survivor count (dose: 67.5 mg/kg/injection, schedule: Q#A X Z (ip), vehicle: saline) was 4 of 6 and the T/C (dose: 70.0 mg/kg/injection, schedule: Q01DX001 (ip), vehicle: saline) was 121 and 130 % of control [5 of 6 alive]. For the same compound, the T/C (dose: 70.0 mg/kg/injection, schedule: Q07DX Z (ip), vehicle: saline) was 163 % of control, the T/C (dose: 80.0 mg/kg/injection, schedule: Q01DX001 (ip), vehicle: saline, evaluated on day 30) was 151, 157, 164 % of control and the T/C (dose: 80.0 mg/kg/injection, schedule: Q01DX001 (ip), vehicle: saline, evaluated on day 60) was 138 % of control. For the same compound, the T/C (dose: 80.0 mg/kg/injection, schedule: Q01DX001 (ip), vehicle: saline, run until all animals had died) was 135 % of control.
